From paper PMC4924758

Protein sequences, listed by entry. Tags and fused reporters are not part of them.
UniProt Q04206, whole entry: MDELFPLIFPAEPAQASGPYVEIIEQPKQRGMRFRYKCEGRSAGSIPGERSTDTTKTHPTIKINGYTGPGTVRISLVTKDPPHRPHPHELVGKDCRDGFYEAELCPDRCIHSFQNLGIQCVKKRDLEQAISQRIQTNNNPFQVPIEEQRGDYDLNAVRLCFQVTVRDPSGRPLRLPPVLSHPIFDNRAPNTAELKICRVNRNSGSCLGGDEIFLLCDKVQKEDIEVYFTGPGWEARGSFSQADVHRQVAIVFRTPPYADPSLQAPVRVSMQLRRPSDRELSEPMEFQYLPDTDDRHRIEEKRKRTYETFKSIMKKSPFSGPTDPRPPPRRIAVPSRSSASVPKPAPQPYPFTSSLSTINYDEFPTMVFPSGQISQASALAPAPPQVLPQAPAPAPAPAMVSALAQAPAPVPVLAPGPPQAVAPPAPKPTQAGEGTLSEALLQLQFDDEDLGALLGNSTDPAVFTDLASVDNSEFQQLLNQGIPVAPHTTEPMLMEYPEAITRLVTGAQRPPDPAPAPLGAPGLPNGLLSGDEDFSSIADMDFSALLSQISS

Target: NFκB p65 (recombinant, Active Motif 31102) (UniProt Q04206)
Assay: EMSA
Details: p65 1 µM, oligo 0.15 µM; EMSA: 5x binding buffer (750 mM KCl, 0.5 mM DTT, 0.5 mM EDTA, 50 mM Tris pH 7.4; 2 µl per reaction, i.e. about 150 mM KCl if 10 µl), 40 min, temperature not stated; recombinant protein; label: none (unlabeled, SYBR Green stain)

**Q.** Does “CGACATGATACACTAAGAAAAAATATTCTGCAGACACTGC (double strand) [MUC16 promoter NFκB mutated oligo]” bind?
**A.** Result: binds more weakly

For at least one entry, the source does not settle the construct or the ends of the probe. The comparison behind a weaker result is the experiment's own reference, which may not be listed here.
